# Measurements reported in patent US20260159618A1, “COMPOUND, POLYMERIZABLE COMPOSITION, POLYMER, HOLOGRAPHIC RECORDING MEDIUM, OPTICAL MATERIAL, AND OPTICAL COMPONENT” (Mitsubishi Chemical Corporation, priority 2022, published 2026).
# Some entries share one result that the patent states for a list of compounds.
# Test: Refractive index measurement of polymerizable monomer (Kalnew precision refractometer)
# Type: physicochemical
# Conditions: 23° C., helium lamp d-line (587.6 nm); calculated for 100% by mass from calibration curve of 10 and 20% by mass test solutions; listed as Example 11
# Method: The refractive index of the compound M-1 was measured using the following method. The refractive indexes of the polymerizable monomers produced in the Examples and Comparative Examples were also measured using the same method.
# A test solution was prepared by dissolving the sample in a mixed solution of 3-phenoxybenzyl acrylate and trimethylolpropane trimethacrylate in a mass ratio of 4:1 to obtain the specified concentration.
# Two types of test solutions were prepared, with sample concentrations of 10% by mass and 20% by mass.
# The refractive index of each test solution was measured using a Kalnew precision refractometer (manufactured by Shimadzu Corporation, product name: KPR-2000). The temperature of the test solution was 23° C., and the measurement wavelength was helium lamp d-line (587.6 nm). Based on the measurement results, a calibration curve showing the correlation between sample concentration and refractive index was created, and the refractive index when the sample concentration was 100% by mass was calculated from the obtained calibration curve, and was taken as the refractive index of the sample.
compound,measurement,value
C=CC(=O)OCCCOc1c(-c2cc3ccccc3c3ccccc23)cc(-c2cc3ccccc3c3ccccc23)cc1-c1cc2ccccc2c2ccccc12 [Compound M-11],Refractive Index,exceed 1.73
